Experimental data as given in PMC7374170, “TRIB3-EGFR interaction promotes lung cancer progression and defines a therapeutic target” (Nature Communications, 2020).
Results are given in words; binding and its absence hold for the method and conditions named. Binding seen in cells or lysates may run through a third protein. Some binding calls cover weakened binding; strength is not graded here. Values belong to the substance of their own block, whether it stands above or below them.

Chains of the proteins cited; added tags and fusions are not shown.
UniProt Q96RU7: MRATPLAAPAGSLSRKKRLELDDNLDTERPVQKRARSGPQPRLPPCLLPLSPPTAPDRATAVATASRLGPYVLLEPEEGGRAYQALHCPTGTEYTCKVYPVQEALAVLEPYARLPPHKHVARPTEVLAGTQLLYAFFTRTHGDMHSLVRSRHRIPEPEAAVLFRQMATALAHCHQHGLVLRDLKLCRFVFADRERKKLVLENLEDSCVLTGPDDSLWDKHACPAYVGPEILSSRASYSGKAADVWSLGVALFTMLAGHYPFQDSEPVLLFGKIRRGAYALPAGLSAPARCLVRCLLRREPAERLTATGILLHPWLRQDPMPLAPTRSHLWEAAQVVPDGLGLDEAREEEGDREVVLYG

Experiments:
[1] = target: protein kinase C alpha (PKCα), endogenous (human (endogenous in A549)) (UniProt P17252); test: co-IP; protein extracts from A549 cells, IP with anti-TRIB3, anti-EGFR or anti-PKCα Abs individually, detected with indicated Abs
HA-tagged TRIB3 = HA-tagged TRIB3 (UniProt Q96RU7); test: co-IP; mapping with deletion mutants (Fig. 3g-i); cells and precipitating antibody not told
[2] = target: epidermal growth factor receptor (EGFR), endogenous (human (endogenous in A549)) (UniProt P00533); test: co-IP; protein extracts from A549 cells, IP with anti-TRIB3, anti-EGFR or anti-PKCα Abs individually, detected with indicated Abs
[3] = target: TRIB3, endogenous (human (endogenous in A549)) (UniProt Q96RU7); test: as above

binding [1]: binds
Substance: epidermal growth factor receptor (EGFR), endogenous (from UniProt P00533 25-1210)

binding (HA-tagged TRIB3): binds
Substance: PKCα, ectopically expressed (from UniProt P17252 1-672) (enzyme)

binding [2]: binds | binding [3]: binds
Substance: protein kinase C alpha (PKCα), endogenous (from UniProt P17252 1-672) (enzyme)
